From publication doi:10.1101/2021.10.04.21264162
No constants are given. Whether binding was seen depends on the method and setting. In cells and extracts the contact can be indirect. Some entries that bind do so weakly or less than the wild type.

By UniProt entry, the sequences of proteins in these tests, tags left out. Where a name states a change or a piece, a line headed by the entry shows the natural chain unless it says otherwise. Chains listed by the source or under a name are the forms on record and can include a tag or linker. Residues count along the entry.
YFP-tagged C-terminal region of CHD3 (residues 1246-1944) (Q12873, residues 1246-1944): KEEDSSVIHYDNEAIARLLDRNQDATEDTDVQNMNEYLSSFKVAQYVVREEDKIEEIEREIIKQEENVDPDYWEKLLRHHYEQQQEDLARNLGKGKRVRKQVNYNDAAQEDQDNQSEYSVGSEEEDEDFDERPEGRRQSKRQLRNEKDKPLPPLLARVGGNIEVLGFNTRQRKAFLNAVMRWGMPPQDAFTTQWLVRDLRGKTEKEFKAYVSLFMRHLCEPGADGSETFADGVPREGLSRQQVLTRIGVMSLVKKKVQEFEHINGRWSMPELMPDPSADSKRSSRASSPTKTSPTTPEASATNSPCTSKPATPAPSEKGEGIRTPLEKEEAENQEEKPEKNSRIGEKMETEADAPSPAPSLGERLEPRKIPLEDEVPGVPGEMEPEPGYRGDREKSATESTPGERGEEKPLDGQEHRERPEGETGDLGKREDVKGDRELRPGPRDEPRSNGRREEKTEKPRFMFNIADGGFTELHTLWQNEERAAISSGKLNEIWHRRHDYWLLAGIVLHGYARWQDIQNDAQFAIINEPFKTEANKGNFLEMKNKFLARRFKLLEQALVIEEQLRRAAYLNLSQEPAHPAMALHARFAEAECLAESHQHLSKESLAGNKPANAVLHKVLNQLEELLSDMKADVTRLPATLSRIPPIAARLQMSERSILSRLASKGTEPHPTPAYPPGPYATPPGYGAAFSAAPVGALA
YFP-tagged C-terminal region of CHD3 (residues 1246-1944) p.E1837K (Q12873, form named): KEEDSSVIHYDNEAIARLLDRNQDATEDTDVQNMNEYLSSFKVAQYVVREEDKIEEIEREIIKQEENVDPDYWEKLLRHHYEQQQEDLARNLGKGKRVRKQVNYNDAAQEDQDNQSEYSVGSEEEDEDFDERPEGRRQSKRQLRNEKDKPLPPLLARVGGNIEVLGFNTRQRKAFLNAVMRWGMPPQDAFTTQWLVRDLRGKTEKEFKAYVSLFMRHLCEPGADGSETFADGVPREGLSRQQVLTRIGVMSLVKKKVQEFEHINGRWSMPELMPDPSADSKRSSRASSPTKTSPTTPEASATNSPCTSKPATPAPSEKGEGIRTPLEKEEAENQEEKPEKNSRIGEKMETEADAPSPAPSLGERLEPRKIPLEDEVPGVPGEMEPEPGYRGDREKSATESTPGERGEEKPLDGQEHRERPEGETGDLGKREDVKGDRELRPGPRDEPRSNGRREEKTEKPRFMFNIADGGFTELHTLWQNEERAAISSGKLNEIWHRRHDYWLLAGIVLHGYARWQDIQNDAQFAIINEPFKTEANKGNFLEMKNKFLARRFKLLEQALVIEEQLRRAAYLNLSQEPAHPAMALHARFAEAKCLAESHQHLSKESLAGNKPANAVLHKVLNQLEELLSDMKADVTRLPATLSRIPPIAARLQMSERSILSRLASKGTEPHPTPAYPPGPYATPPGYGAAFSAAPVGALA
YFP-tagged C-terminal region of CHD3 (residues 1246-1944) p.R1342Q (Q12873, form named): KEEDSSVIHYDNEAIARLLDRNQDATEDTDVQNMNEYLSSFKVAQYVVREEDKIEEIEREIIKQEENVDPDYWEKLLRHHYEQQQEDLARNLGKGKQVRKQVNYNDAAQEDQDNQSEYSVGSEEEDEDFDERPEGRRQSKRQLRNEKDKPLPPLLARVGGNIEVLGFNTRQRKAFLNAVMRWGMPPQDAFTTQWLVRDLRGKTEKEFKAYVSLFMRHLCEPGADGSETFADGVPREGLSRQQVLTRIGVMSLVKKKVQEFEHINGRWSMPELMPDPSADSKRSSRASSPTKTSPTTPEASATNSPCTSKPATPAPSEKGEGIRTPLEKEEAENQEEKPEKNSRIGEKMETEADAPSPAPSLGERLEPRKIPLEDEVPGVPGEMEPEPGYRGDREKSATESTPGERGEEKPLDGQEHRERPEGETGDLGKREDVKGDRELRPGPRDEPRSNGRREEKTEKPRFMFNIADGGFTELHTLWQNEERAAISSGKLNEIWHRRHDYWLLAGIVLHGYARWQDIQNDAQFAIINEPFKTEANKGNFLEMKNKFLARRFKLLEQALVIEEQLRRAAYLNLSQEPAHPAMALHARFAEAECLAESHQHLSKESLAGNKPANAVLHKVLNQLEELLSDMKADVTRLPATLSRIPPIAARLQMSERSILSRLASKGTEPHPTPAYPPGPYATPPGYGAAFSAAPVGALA
UniProt Q8WXI9: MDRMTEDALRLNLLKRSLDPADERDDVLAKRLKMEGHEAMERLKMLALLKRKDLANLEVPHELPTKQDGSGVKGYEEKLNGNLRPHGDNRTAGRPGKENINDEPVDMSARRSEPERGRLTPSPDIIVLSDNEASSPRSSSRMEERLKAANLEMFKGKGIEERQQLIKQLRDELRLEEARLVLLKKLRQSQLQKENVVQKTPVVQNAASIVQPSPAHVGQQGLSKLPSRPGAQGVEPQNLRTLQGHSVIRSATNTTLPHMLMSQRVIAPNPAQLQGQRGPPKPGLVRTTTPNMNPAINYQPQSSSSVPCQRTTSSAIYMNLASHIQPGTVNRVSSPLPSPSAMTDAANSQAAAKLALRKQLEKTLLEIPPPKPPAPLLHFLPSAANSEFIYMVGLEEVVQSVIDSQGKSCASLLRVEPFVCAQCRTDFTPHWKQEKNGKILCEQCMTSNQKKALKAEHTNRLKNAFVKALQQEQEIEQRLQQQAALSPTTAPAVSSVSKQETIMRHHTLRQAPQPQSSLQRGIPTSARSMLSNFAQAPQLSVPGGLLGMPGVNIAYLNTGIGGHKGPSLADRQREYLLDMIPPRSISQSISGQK

Legend:
Experiment in all cases: co-IP
[1] = target: YFP-tagged C-terminal region of CHD3 (residues 1246-1944) (human) (UniProt Q12873)
[2] = target: YFP-tagged C-terminal region of CHD3 (residues 1246-1944) p.E1837K (human) (UniProt Q12873)
[3] = target: YFP-tagged C-terminal region of CHD3 (residues 1246-1944) p.R1342Q (human) (UniProt Q12873)

binding [1]: binds
binding [2]: binds
binding [3]: binds
Substance: Rluc-tagged GATAD2B (from UniProt Q8WXI9 1-593)
